PubChem BioAssay AID1347076 (National Center for Advancing Translational Sciences (NCATS), 2019)
In all, about 400,000 compounds went through this assay and about 13,000 (3.2%) were called active. The inconclusive results got no clear call from the source; some entries with a clear call stand among them for comparison. Calls come from the whole dose curve; as a rule, active = well fitted cell-killing curve with a large enough effect; inconclusive = small, poorly fitted or top-dose-only effect, or effect the other way; inactive = flat fitted curve, though single readings scatter. Where the call is inconclusive, the potency comes from a doubtful curve fit.

Test: qHTS assay for MDR1-selective chemotherapeutics: Primary screen using the drug-selected MDR subline cells KB-V1; note: nearly all actives have a fitted effect of over 60% in size
Conditions: KB-V1 MDR cells viability, CellTiter-Glo, 72 h; activity change, negative = cytotoxicity: at 46.1 µM (top of the series)
In short: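 KB-V1 cells (P-gp-expressing MDR subline of KB-3-1) in phenol-red-free DMEM with 10% FBS were exposed to library compounds over a concentration series for 72 h at 37 degrees C. Viability read by CellTiter-Glo luminescence; concentration-effect curves fitted after normalization.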
% is set by controls: 0 for no effect and ±100 for the full control effect; potency is the fitted concentration of half-maximal effect.

Row | Structure (SMILES) | activity change, negative = cytotoxicity | Potency
1 | CCc1ccc(CNC(=O)C(CC)n2ccc3cc(S(=O)(=O)N4CCCCC4)ccc32)cc1 (centres undefined) | inactive: 7.34% | 
2 | CN(C)/N=C/C=C1\CCC/C(=C\c2ccc(F)c(F)c2)C1=O |  | inconclusive: 29.1 µM [cytotoxic, single point]
3 | Cc1nc(-c2ccc(NC(=O)c3ccccc3Br)cc2)cs1 | inactive: -21.4% | 
4 | Cc1ccc(C)c(S(=O)(=O)N2CCCOC2CNC(=O)C(=O)NCCc2ccco2)c1 (centres undefined) |  | inconclusive: 16.4 µM [cytotoxic, partial curve]
5 | CN1C/C(=C/c2ccsc2)C(=O)/C(=C/c2ccsc2)C1 |  | inconclusive: 23.1 µM [cytotoxic, single point]
6 | O=[N+]([O-])c1ccc(C=C2c3ccccc3-c3ccccc32)cc1 |  | inconclusive: 23.1 µM [cytotoxic, partial curve, poor fit]
7 | CCCNC(=O)CCn1nc(-c2ccc(Cl)cc2)c2ccccc2c1=O |  | inconclusive: 32.6 µM [cytotoxic, single point]
8 | CCOC(=O)c1cnc2c(C)c(Cl)ccc2c1Nc1ccc(C)cc1C | inactive: 12.5% | 
9 | Cc1nnc(SCCn2c(Br)nc3c2c(=O)n(C)c(=O)n3C)s1 |  | inconclusive: 16.4 µM [cytotoxic, single point]
10 | O=C(OCc1ccccc1)N1CCC2CC1c1ccc(N3CCN(Cc4ccc5c(c4)OCO5)CC3)cc12 (centres undefined) | inactive: -14% | 
11 | COc1ccc(NC(=O)N(C)C[C@H]2Oc3c(NC(=O)C4CC4)cccc3C(=O)N([C@H](C)CO)C[C@@H]2C)cc1 | inactive: 3.62% | 
12 | COc1cccc(OCc2cc(C(=O)N3CCCC3c3ccccn3)no2)c1 (centres undefined) |  | inconclusive: 11.6 µM [cytotoxic, partial curve, poor fit]
13 | CCCn1c(CNS(=O)(=O)c2ccc(C)cc2)nc2ccccc21 |  | inconclusive: 14.6 µM [cytotoxic, partial curve, poor fit]
14 | CCOc1ccccc1N1CC(C(=O)N2CCOCC2)CC1=O (centres undefined) |  | inconclusive: 29.1 µM [rising, single point]
15 | CC(=O)Oc1ccc2c(c1)CCC1C2CCC2(C)C(OC(C)=O)CCC12 (centres undefined) |  | active: 10.3 µM
16 | O=C(Nc1ccc(N2CCCC2)cc1)c1cc(Cl)ccc1Cl |  | inconclusive: 29.1 µM [cytotoxic, single point]
17 | CN1c2cc(Cl)ccc2-c2nc(SCC(=O)Nc3ccc(F)cc3F)ncc2S1(=O)=O |  | inconclusive: 11.6 µM [cytotoxic, partial curve, poor fit]
18 | COc1ccc(C(C)(C)C)cc1NC(=O)c1cc(S(=O)(=O)N(C)C)ccc1N1CCCC1 |  | active: 23.1 µM
19 | Cc1cccc(S(=O)(=O)Nc2nc3ccccc3nc2Nc2ccc3c(c2)OCO3)c1 | inactive: -2.79% | 
20 | COc1cccc(S(=O)(=O)Nc2ccc(C(=O)N3CCN(C(=O)c4ccco4)CC3)cc2)c1 | inactive: 28% | 
21 | COc1ccc(NS(=O)(=O)c2cccs2)cc1S(=O)(=O)N1CCCCC1 |  | inconclusive: 18.4 µM [cytotoxic, single point]
22 | O=C(COc1ccccc1-c1ccccc1)N/N=C/c1cccnc1 |  | inconclusive: 29.1 µM [cytotoxic, single point]
23 | O=C1c2ccccc2NC(c2cccs2)N1NS(=O)(=O)c1ccccc1 (centres undefined) |  | inconclusive: 23.1 µM [cytotoxic, single point]

3 compounds out of the list, sorted by number of heavy atoms, ascending:
Row | Structure (SMILES) | activity change, negative = cytotoxicity | Potency
7 | CCCNC(=O)CCn1nc(-c2ccc(Cl)cc2)c2ccccc2c1=O |  | inconclusive: 32.6 µM [cytotoxic, single point]
17 | CN1c2cc(Cl)ccc2-c2nc(SCC(=O)Nc3ccc(F)cc3F)ncc2S1(=O)=O |  | inconclusive: 11.6 µM [cytotoxic, partial curve, poor fit]
11 | COc1ccc(NC(=O)N(C)C[C@H]2Oc3c(NC(=O)C4CC4)cccc3C(=O)N([C@H](C)CO)C[C@@H]2C)cc1 | inactive: 3.62% | 

More results.

Row | Structure (SMILES) | activity change, negative = cytotoxicity | Potency
24 | COc1ccc(CCN(C)CC(O)COC(c2ccc(F)cc2)c2ccc(F)cc2)cc1OC (centres undefined) |  | inconclusive: 13 µM [cytotoxic, partial curve, poor fit]
25 | COC(=O)c1ccc(Cl)c(NC(=O)CN(c2ccccc2)S(=O)(=O)c2ccc(OC)cc2)c1 |  | inconclusive: 2.06 µM [cytotoxic, full curve, poor fit]
26 | Cc1ccc(Nc2c([N+](=O)[O-])c(=O)oc3ccccc23)cc1 |  | inconclusive: 32.6 µM [cytotoxic, single point]
27 | Cc1cc(-c2ccccc2)nc(N(C)NC(=O)c2ccc(Cl)cc2)c1S(C)(=O)=O |  | inconclusive: 3.66 µM [cytotoxic, full curve]
28 | C=C(C)CN(CC)C(=O)CSc1ccc(S(=O)(=O)N2CCN(C)CC2)cn1 |  | inconclusive: 6.51 µM [cytotoxic, partial curve]
29 | Cc1noc(C)c1C(=O)OCC(=O)Nc1cc(Cl)ccc1Oc1ccccc1 |  | inconclusive: 16.4 µM [cytotoxic, partial curve, poor fit]
30 | CC1(C)CC(=O)C(C2C3=C(CC(C)(C)CC3=O)Oc3c(Br)cc(Br)cc32)=C(O)C1 (centres undefined) |  | inconclusive: 18.4 µM [cytotoxic, partial curve, poor fit]
31 | CN1/C(=C\C=C2/SC(=S)NC2=O)C(C)(C)c2ccccc21 |  | inconclusive: 29.1 µM [cytotoxic, single point]
32 | NC(=S)c1cc2cc(Br)ccc2oc1=O |  | inconclusive: 29.1 µM [rising, single point]
33 | CC(=O)c1c(C)nc2ccccc2c1N | inactive: 45.9% | 
34 | CCC(C(=O)Nc1ccsc1C(=O)OC)c1ccccc1 (centres undefined) |  | inconclusive: 29.1 µM [cytotoxic, single point]
35 | O=C(c1ccccc1NS(=O)(=O)c1ccc(F)cc1F)N1CCCCC1 | inactive: -2.42% | 
36 | COCCOc1cc(Nc2nnc(C(F)(F)F)s2)c(Cl)cc1Cl |  | inconclusive: 29.1 µM [cytotoxic, single point]
37 | CCn1c2ccc(F)cc2c2nnc(SCCN3CCOCC3)nc21 |  | inconclusive: 1.46 µM [cytotoxic, full curve]
38 | Cc1cccc(-n2c(C)cc(C=C3C(=O)c4ccccc4C3=O)c2C)c1 |  | inconclusive: 32.6 µM [cytotoxic, single point]
39 | COc1c(Cl)cccc1-c1cn2ccccc2n1 |  | active: 11.6 µM
40 | Nc1ccc(CCCC(=O)NCc2cccnc2)cc1 | inactive: 30% | 
41 | COc1ccccc1-n1cc(-c2ccc(C)cc2)[nH]c1=S |  | active: 23.1 µM
42 | Cc1ccsc1C(=O)N(Cc1nnc(-c2ccccc2Cl)o1)C1CC1 |  | inconclusive: 0.517 µM [cytotoxic, single point]
43 | COc1ccc(C(=O)CC(=O)Nc2ccc([N+](=O)[O-])cc2)cc1 | inactive: -23.3% | 
44 | CC(C)N(c1ccccc1)c1ccc(NC(=O)CCl)cc1 |  | inconclusive: 23.1 µM [cytotoxic, single point]
45 | Cc1nn2c([nH]c(=O)c3ccccc32)c1C=O |  | inconclusive: 23.1 µM [cytotoxic, partial curve, poor fit]
46 | Cc1cc(C(=O)CSc2nnc(-c3ccc4c(c3)OCO4)o2)c(C)n1-c1ccc(F)cc1 |  | inconclusive: 29.1 µM [cytotoxic, single point]

Row | Structure (SMILES) | activity change, negative = cytotoxicity | Potency
47 | O=C(COC(=O)CSc1ccc(Cl)cc1)Nc1ccccc1 |  | inconclusive: 29.1 µM [rising, single point]
48 | CC1CCCC(NC(=O)C2CCN(S(=O)(=O)N3CCCCCC3)CC2)C1C (centres undefined) |  | inconclusive: 8.2 µM [cytotoxic, partial curve]
49 | CCN(CC)C(=O)CSc1ncnc2c1cnn2-c1ccccc1 |  | inconclusive: 16.4 µM [cytotoxic, single point]
50 | CC1CC(C)CN(C(=O)CN2C(=O)NC3(CCCCCC3)C2=O)C1 (centres undefined) | inactive: -7.14% | 
51 | COc1ccc(C(=O)N2CCc3ccccc3C2)cc1S(=O)(=O)N1CCCC1 |  | inconclusive: 1.16 µM [cytotoxic, partial curve, poor fit]
52 | O=C(COc1ccc2c(c1)CCC2)N1CCN(c2ccccc2F)CC1 |  | active: 0.0037 µM
53 | CCN(CC(=O)NC(C)C)C(=O)C(CCSC)NC(=O)c1ccccc1OC (centres undefined) | inactive: -19.9% | 
54 | CCCCNC(=O)CC(NS(=O)(=O)c1ccc(C)cc1)c1ccco1 (centres undefined) |  | inconclusive: 20.6 µM [cytotoxic, single point]
55 | Cc1ccc(C)c(N2CCN(C(=O)c3ccc(CS(=O)Cc4cccc(Cl)c4)o3)CC2)c1 (centres undefined) | inactive: -9.1% | 
56 | CC(CC(=O)c1ccc(F)cc1)N1CCN(c2ccccc2)CC1 (centres undefined) |  | inconclusive: 20.6 µM [cytotoxic, partial curve]
57 | Cc1cc(C)n2nc(SCCCC(=O)c3ccccc3)nc2n1 |  | inconclusive: 14.6 µM [cytotoxic, single point]
58 | COc1ccc(N2CCN(C(=O)COC(=O)c3ccc(C)o3)CC2)cc1 | inactive: -4.17% | 
59 | N#Cc1cc2c(nc1SCC(O)CS(=O)(=O)Cc1ccc(Cl)cc1)CCCC2 (centres undefined) |  | inconclusive: 16.4 µM [cytotoxic, single point]
60 | Cc1ccc(C)c(OCC(=O)OCC(=O)Nc2c(C)nn(-c3ccccc3)c2C)c1 | inactive: 6.55% | 
61 | Cc1cc(C)c(C)c(S(=O)(=O)N2CCN(C(=O)c3ccco3)CC2)c1C |  | inconclusive: 6.51 µM [cytotoxic, partial curve]
62 | COC(=O)CSc1nc(SC)nc2c1sc1nc(-c3ccco3)c3c(c12)CC(C)(C)OC3 | inactive: 23.3% | 
63 | O=c1[nH]nc(Cc2ccc(-c3ccc(Cl)cc3)o2)c2ccccc12 | inactive: -16.3% | 
64 | CC1=NN(c2nc(N)nc(/C(C#N)=C/c3ccc([N+](=O)[O-])o3)n2)C(C)(C)C1 |  | inconclusive: 16.4 µM [cytotoxic, partial curve]
65 | Cc1cccc(N2CCN(C(=O)C3CCCCC3)CC2)c1C |  | inconclusive: 11.6 µM [cytotoxic, partial curve]
66 | CCCCNC(=O)c1c(N)[nH]c(C(=O)c2ccccc2)c1-c1ccccn1 |  | active: 20.6 µM
67 | COc1ccccc1CNc1cc(-c2ccccc2)nc2nncn12 | inactive: 0% | 
68 | CCN(CC)C(=O)c1sc(NC(=O)c2ccc(Br)o2)c(C(=O)OC)c1C |  | active: 9.2 µM
69 | O=[N+]([O-])c1ccc(/C=C2\C=C(C(O)c3ccc([N+](=O)[O-])cc3)c3ccccc32)cc1 (centres undefined) |  | inconclusive: 9.2 µM [cytotoxic, partial curve, poor fit]
